Measured values taken from article doi:10.1101/2024.01.16.575974.
No constants are given. Whether binding was seen depends on the method and setting. Some results given as binding are weak or reduced against the parent protein; the word gives no strength. For some assays here: Sequences can lack the tags named with a protein. One block for each binder: values may come before it.

Legend:
[1] = target: T1, Pseudomonas aeruginosa FtsE (Pseudomonas aeruginosa ATCC 47085D); experiment: SEC
T1 sequence: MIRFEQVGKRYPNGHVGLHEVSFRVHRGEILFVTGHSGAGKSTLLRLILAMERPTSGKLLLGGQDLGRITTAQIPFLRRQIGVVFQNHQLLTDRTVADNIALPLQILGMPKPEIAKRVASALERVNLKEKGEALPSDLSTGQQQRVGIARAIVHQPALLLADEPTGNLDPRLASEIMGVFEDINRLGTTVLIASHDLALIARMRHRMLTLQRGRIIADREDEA

[2] = target: T2, Escherichia coli FtsE E163Q mutant, His-tagged (Escherichia coli (str. K-12, MG1655)) (UniProt P0A9R7); experiment: cryo-EM structure
T2 sequence: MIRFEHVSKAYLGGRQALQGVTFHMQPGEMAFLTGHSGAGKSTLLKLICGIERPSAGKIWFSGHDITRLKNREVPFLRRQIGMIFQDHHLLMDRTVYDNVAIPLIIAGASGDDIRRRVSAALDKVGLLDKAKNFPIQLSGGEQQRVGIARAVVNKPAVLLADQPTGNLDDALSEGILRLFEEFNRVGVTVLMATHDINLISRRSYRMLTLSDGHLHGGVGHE

[3] = target: T3, Escherichia coli FtsE, His-tagged, full length (Escherichia coli (str. K-12, MG1655)) (UniProt P0A9R7); experiment: cryo-EM structure
T3 sequence: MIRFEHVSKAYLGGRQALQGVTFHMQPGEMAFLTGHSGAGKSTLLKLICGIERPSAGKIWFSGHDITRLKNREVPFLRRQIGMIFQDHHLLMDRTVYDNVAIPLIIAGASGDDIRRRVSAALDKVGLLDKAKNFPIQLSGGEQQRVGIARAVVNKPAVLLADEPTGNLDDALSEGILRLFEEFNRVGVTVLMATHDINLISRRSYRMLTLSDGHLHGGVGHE

[4] = target: T3, Escherichia coli FtsE, His-tagged, full length (Escherichia coli (str. K-12, MG1655)); experiment: negative-staining electron microscopy
[5] = target: T3, Escherichia coli FtsE, His-tagged, full length (Escherichia coli (str. K-12, MG1655)); experiment: SEC
[6] = target: T2, Escherichia coli FtsE E163Q mutant, His-tagged (Escherichia coli (str. K-12, MG1655)); experiment: affinity co-purification
[7] = target: T3, Escherichia coli FtsE, His-tagged, full length (Escherichia coli (str. K-12, MG1655)); experiment: affinity co-purification
[8] = target: T4, Escherichia coli FtsE, His-tagged, full length (Escherichia coli (str. K-12, MG1655)), P0A9R7; experiment: cryo-EM structure; settings: remark: other sources report otherwise
T4 chain: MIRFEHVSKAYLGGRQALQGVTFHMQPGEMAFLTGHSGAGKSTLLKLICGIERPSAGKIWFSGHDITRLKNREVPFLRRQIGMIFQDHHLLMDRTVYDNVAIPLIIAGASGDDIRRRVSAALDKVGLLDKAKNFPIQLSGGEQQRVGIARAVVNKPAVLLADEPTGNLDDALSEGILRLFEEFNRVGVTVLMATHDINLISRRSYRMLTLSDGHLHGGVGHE

[9] = target: T5, Escherichia coli FtsE^E163QX/EnvC complex in peptidiscs (Escherichia coli (str. K-12, MG1655) | Escherichia coli) (UniProt P0A9R7+P0AC30+P37690); experiment: negative-staining electron microscopy
T5 sequence 1: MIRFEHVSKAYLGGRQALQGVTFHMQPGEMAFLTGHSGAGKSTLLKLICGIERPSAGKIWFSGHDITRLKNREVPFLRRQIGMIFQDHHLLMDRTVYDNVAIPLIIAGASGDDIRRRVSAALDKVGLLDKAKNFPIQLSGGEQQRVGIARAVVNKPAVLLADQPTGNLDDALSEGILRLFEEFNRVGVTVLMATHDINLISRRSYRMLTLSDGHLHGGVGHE
T5 sequence 2: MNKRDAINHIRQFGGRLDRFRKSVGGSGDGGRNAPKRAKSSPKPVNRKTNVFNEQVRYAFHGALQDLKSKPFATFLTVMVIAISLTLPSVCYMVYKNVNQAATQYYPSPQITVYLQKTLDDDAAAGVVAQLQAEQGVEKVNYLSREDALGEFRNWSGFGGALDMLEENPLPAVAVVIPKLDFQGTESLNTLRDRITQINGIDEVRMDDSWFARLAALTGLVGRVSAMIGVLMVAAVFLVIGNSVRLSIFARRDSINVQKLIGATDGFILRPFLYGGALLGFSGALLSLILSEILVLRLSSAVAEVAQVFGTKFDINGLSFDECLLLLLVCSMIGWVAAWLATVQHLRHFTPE
T5 sequence 3: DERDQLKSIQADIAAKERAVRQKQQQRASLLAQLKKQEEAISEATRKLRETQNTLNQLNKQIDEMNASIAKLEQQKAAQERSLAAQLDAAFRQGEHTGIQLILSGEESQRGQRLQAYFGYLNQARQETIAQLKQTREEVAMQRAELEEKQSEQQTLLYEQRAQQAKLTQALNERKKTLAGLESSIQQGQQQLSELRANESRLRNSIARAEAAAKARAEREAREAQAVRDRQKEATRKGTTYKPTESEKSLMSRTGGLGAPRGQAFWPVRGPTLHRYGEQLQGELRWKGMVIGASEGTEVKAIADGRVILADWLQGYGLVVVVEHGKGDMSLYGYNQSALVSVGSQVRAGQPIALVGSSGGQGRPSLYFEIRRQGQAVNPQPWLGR

[10] = target: T5, Escherichia coli FtsE^E163QX/EnvC complex in peptidiscs (Escherichia coli (str. K-12, MG1655) | Escherichia coli); experiment: pull-down
[11] = target: T6, Escherichia coli FtsE^E163QX complex in peptidiscs (Escherichia coli (str. K-12, MG1655)) (UniProt P0A9R7+P0AC30); experiment: cryo-EM structure
T6 sequence 1: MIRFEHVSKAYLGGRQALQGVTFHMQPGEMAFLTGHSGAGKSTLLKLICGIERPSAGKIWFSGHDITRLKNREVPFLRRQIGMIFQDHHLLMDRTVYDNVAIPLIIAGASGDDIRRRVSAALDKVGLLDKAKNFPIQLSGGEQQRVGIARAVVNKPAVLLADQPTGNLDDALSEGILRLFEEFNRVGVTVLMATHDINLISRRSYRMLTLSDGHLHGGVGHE
T6 sequence 2: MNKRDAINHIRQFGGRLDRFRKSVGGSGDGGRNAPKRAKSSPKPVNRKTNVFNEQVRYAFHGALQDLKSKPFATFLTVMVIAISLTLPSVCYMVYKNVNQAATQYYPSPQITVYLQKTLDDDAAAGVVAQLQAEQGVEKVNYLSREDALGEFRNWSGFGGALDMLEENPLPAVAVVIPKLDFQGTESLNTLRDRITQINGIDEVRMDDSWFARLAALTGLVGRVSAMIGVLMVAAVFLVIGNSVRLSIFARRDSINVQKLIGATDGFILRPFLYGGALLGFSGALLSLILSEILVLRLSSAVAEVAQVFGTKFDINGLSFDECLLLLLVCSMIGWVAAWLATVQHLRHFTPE

[12] = target: T7, Escherichia coli FtsEX complex (wild type) in peptidiscs (Escherichia coli (str. K-12, MG1655)) (UniProt P0A9R7+P0AC30); experiment: affinity co-purification
T7 sequence 1: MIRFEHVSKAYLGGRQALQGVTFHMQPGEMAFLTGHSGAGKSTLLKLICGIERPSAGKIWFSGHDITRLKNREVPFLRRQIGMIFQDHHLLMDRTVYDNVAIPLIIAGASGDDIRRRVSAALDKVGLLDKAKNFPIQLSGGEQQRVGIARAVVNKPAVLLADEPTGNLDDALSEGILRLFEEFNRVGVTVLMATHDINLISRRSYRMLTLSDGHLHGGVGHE
T7 sequence 2: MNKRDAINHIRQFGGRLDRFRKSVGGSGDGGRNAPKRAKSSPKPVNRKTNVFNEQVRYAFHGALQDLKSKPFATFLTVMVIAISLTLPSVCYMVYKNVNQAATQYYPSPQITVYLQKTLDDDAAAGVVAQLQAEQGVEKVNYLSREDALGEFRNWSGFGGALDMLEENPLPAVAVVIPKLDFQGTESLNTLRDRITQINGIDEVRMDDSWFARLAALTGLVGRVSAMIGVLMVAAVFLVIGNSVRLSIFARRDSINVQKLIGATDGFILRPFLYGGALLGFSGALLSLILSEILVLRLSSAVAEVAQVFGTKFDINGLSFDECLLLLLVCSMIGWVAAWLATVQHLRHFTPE

[13] = target: T7, Escherichia coli FtsEX complex (wild type) in peptidiscs (Escherichia coli (str. K-12, MG1655)); experiment: pull-down
[14] = target: T6, Escherichia coli FtsE^E163QX complex in peptidiscs (Escherichia coli (str. K-12, MG1655)); experiment: pull-down

binding [8]: binds
B3: Escherichia coli FtsE, His-tagged, full length, P0A9R7 1-222 (protein)
chain: MIRFEHVSKAYLGGRQALQGVTFHMQPGEMAFLTGHSGAGKSTLLKLICGIERPSAGKIWFSGHDITRLKNREVPFLRRQIGMIFQDHHLLMDRTVYDNVAIPLIIAGASGDDIRRRVSAALDKVGLLDKAKNFPIQLSGGEQQRVGIARAVVNKPAVLLADEPTGNLDDALSEGILRLFEEFNRVGVTVLMATHDINLISRRSYRMLTLSDGHLHGGVGHE

binding [9]: binds | binding [10]: binds
B4: Escherichia coli AmiB (EcoAmiBΔ22) (enzyme, UniProt P26365 23-445)
chain: ATLSDIQVSNGNQQARITLSFIGDPDYAFSHQSKRTVALDIKQTGVIQGLPLLFSGNNLVKAIRSGTPKDAQTLRLVVDLTENGKTEAVKRQNGSNYTVVFTINADVPPPPPPPPVVAKRVETPAVVAPRVSEPARNPFKTESNRTTGVISSNTVTRPAARATANTGDKIIIAIDAGHGGQDPGAIGPGGTREKNVTIAIARKLRTLLNDDPMFKGVLTRDGDYFISVMGRSDVARKQNANFLVSIHADAAPNRSATGASVWVLSNRRANSEMASWLEQHEKQSELLGGAGDVLANSQSDPYLSQAVLDLQFGHSQRVGYDVATSMISQLQRIGEIHKRRPEHASLGVLRSPDIPSVLVETGFISNNSEERLLASDDYQQQLAEAIYKGLRNYFLAHPMQSAPQGATAQTASTVTTPDRTLPN

The next lines start with the binder.

B1: Pseudomonas aeruginosa FtsX (protein, UniProt A0A072ZG76 1-335)
chain: MSANDLPRGPEEGAPERKTREKPSQEQTDWSGSFSAYLESHRASLVDSLRRLFGHPFGSFFTCLVMGITLSLPMGLSLLLNNVERLGGSWQRAAQISLFLDLKTSENQGQDLREQIERLPDVIEAQLISREQALSELQEQSGLGEALKELPENPLPPVISVTPKQIDRAGLEALRQQLAELPHVQQAQLDLVWVERLSAILKLGERFVFGLTILLVLTLLLVVGNTIRLHIENRRNEIEVIKLVGGTDGYVRRPFLYMGALYGLGAGILSWALLAYSLNWLNGSVVNLSGLYGSDFGLQGVPLDDGLSLTVGAVLLGWVGAWLAVARHLRELAPR
binding [1]: binds

B2: Escherichia coli FtsX, full length (protein, UniProt P0AC30 1-352)
chain: MNKRDAINHIRQFGGRLDRFRKSVGGSGDGGRNAPKRAKSSPKPVNRKTNVFNEQVRYAFHGALQDLKSKPFATFLTVMVIAISLTLPSVCYMVYKNVNQAATQYYPSPQITVYLQKTLDDDAAAGVVAQLQAEQGVEKVNYLSREDALGEFRNWSGFGGALDMLEENPLPAVAVVIPKLDFQGTESLNTLRDRITQINGIDEVRMDDSWFARLAALTGLVGRVSAMIGVLMVAAVFLVIGNSVRLSIFARRDSINVQKLIGATDGFILRPFLYGGALLGFSGALLSLILSEILVLRLSSAVAEVAQVFGTKFDINGLSFDECLLLLLVCSMIGWVAAWLATVQHLRHFTPE
binding [2]: binds | binding [3]: binds | binding [4]: binds | binding [5]: binds | binding [6]: binds | binding [7]: binds

B5: Escherichia coli EnvC (EcoEnvCΔ34) (protein, UniProt P37690 35-419)
chain: DERDQLKSIQADIAAKERAVRQKQQQRASLLAQLKKQEEAISEATRKLRETQNTLNQLNKQIDEMNASIAKLEQQKAAQERSLAAQLDAAFRQGEHTGIQLILSGEESQRGQRLQAYFGYLNQARQETIAQLKQTREEVAMQRAELEEKQSEQQTLLYEQRAQQAKLTQALNERKKTLAGLESSIQQGQQQLSELRANESRLRNSIARAEAAAKARAEREAREAQAVRDRQKEATRKGTTYKPTESEKSLMSRTGGLGAPRGQAFWPVRGPTLHRYGEQLQGELRWKGMVIGASEGTEVKAIADGRVILADWLQGYGLVVVVEHGKGDMSLYGYNQSALVSVGSQVRAGQPIALVGSSGGQGRPSLYFEIRRQGQAVNPQPWLGR
binding [11]: binds | binding [12]: binds | binding [13]: binds | binding [14]: binds
